Numbering of substitutions follows the chain as printed. These are yes or no findings as the source states them, for the method shown. Tags and fused reporters may be left off the sequences shown.
Assays:
[1] = biological target: T1, Full-length His-She3p (Saccharomyces cerevisiae) (UniProt P38272); test: pull-down; His-tagged She3p (full length, point mutants, or MBP-She3p fragment-His) on nickel sepharose, no RNA; 7.5–10 µM of each protein, HNMD-buffer (20 mM HEPES pH 7.8, 200 mM NaCl, 2 mM MgCl2, 2 mM DTT) with 30–50 mM imidazole, 30–60 min at 4°C; SDS-PAGE, Coomassie; both purified
T1 sequence: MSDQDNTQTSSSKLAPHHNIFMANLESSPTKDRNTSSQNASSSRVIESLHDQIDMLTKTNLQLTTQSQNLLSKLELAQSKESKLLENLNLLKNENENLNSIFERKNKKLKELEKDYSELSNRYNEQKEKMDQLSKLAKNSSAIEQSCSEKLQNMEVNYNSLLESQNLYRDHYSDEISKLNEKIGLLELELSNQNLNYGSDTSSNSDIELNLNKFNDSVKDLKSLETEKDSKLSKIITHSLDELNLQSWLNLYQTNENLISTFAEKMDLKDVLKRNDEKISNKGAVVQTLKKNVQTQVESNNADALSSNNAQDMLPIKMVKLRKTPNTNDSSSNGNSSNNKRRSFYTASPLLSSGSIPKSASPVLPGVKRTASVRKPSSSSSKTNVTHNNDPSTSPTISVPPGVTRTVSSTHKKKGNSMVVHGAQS

Protein sequences, listed by entry. Tags and fused reporters are not part of them. Lines headed by an entry give the natural chain unless they say otherwise; changes in a name come on top.
UniProt P36068: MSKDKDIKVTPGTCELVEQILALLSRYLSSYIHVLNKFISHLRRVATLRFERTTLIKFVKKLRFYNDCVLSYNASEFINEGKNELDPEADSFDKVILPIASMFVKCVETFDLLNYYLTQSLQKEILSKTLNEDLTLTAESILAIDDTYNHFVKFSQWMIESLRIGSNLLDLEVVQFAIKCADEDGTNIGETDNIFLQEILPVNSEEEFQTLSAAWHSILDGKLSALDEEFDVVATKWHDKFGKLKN

[2] = biological target: T2, His-She3p (L364A V367A) (Saccharomyces cerevisiae) (UniProt P38272); test: as above
T2 sequence: T1 sequence with L364A, V367A

With “She2p (Q197A E198A I199A) (from UniProt P36068 1-246)” the binding [1] was “no binding (tested: 7.5–10 µM of each protein)”.
For “She2p (wild type) (from UniProt P36068 1-246)”, the binding [2] was “no binding (tested: 7.5–10 µM of each protein)”.
With “She2p (F195A L196A) (from UniProt P36068 1-246)” the binding [1] was “no binding (tested: 7.5–10 µM of each protein)”.

— article PMC3079584
